{"sequences": {"note": "The chains behind the UniProt entries cited, without tags or fusion partners. Where a name states a change or a piece, a line headed by the entry shows the natural chain unless it says otherwise.", "UniProt P08730": "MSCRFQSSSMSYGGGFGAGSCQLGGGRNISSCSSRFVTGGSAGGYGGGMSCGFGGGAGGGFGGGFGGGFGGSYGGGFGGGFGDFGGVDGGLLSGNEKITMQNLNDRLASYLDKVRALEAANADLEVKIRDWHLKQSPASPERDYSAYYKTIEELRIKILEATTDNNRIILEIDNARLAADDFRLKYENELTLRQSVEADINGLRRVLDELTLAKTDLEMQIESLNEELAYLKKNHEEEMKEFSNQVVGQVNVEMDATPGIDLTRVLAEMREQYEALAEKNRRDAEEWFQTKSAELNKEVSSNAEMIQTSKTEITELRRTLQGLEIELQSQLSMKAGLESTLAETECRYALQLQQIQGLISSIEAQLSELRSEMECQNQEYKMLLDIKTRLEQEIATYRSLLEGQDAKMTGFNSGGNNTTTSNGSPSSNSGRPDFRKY", "UniProt P15331, whole entry": "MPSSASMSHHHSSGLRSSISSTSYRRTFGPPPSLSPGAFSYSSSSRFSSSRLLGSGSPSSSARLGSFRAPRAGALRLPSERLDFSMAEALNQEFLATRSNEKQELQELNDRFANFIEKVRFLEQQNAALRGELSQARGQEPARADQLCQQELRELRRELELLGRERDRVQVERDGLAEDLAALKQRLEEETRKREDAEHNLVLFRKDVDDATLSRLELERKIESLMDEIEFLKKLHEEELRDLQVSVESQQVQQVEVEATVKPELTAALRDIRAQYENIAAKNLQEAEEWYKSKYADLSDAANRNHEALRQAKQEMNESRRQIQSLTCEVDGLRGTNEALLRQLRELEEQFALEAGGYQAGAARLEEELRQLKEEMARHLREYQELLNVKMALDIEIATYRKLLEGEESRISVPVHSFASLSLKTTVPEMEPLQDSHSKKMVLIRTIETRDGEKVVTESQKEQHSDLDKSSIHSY", "UniProt P10923": "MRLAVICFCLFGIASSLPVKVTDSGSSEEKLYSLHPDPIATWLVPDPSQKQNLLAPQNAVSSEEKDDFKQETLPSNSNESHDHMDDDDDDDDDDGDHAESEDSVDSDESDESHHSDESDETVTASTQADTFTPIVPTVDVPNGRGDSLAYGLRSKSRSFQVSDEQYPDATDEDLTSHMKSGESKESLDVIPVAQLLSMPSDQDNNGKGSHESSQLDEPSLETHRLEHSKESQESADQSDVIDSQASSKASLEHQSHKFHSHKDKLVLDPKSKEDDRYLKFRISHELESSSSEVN", "UniProt P09450": "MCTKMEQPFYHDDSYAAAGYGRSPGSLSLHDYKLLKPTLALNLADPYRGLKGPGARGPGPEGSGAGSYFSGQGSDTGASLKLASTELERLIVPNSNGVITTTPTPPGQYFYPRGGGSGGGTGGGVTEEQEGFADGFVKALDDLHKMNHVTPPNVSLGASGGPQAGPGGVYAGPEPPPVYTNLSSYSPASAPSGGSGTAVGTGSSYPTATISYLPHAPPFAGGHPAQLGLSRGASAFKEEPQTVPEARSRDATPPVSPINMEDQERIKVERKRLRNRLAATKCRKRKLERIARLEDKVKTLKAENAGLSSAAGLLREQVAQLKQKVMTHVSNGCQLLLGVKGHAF", "UniProt O89116": "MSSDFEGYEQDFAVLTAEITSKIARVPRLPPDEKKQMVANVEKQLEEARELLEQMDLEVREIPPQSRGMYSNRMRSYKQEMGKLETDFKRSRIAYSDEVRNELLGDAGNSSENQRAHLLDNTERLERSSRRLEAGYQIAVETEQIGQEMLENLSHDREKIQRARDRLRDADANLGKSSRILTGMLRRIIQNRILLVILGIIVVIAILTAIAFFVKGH", "UniProt P0DJF2": "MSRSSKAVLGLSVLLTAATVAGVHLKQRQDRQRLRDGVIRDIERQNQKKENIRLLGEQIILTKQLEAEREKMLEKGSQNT", "UniProt P01897": "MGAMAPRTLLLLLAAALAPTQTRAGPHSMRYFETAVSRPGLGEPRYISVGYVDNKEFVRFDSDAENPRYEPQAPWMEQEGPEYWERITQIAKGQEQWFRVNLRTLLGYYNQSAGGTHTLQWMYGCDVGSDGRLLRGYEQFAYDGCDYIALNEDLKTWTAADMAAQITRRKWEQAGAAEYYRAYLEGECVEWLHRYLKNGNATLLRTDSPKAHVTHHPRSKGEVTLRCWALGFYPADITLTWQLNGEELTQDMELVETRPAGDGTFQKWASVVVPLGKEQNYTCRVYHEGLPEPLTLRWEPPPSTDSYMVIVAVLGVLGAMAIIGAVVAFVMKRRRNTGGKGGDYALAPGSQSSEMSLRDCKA", "UniProt P06802": "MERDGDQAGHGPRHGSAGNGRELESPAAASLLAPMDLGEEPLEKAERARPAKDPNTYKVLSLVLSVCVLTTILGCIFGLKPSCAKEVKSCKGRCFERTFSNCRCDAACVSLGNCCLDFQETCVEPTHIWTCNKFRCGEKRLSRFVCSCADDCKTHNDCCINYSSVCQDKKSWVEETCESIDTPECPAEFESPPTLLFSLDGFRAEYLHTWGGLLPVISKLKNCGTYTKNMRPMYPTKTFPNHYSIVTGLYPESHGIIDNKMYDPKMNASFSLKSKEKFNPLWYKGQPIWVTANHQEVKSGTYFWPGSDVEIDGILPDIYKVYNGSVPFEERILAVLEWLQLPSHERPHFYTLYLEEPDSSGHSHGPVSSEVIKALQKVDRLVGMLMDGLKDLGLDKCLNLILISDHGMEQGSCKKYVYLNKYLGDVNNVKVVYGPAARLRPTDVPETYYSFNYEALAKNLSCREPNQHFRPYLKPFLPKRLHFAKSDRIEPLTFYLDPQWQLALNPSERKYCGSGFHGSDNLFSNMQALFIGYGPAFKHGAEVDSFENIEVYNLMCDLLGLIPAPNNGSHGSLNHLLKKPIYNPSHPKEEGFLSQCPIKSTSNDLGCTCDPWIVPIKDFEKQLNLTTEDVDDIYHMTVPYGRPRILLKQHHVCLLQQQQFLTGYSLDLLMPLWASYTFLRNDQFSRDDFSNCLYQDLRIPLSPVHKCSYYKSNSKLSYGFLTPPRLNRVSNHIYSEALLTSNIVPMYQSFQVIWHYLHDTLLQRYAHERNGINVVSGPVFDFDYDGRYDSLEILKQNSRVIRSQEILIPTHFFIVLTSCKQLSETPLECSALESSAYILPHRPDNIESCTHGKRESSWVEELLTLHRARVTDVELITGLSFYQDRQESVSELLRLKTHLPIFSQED"}, "source": "the supplement of paper PMC12819154", "about": "“High-throughput peptide-centric local stability assay extends protein–ligand identification to membrane proteins, tissues and bacteria” (Nature Structural & Molecular Biology, 2025)", "note": "Some of the results follow. Small differences around the control level are noise.", "data": [{"compound": "CN[C@@H]1C[C@H]2O[C@@](C)([C@@H]1OC)n1c3ccccc3c3c4c(c5c6ccccc6n2c5c31)C(=O)NC4 [staurosporine]", "assay": "log2 fold change of tryptic peptide abundance, ligand vs vehicle (limited proteolysis) (log2 ratio); higher = more trypsin-susceptible (destabilized)", "settings": "ligand concentration: 20 uM; sample: mouse liver crude lysate; replicate design: treated separately", "values": [{"target": "UniProt P08730 (peptide sequence: ITMQNLNDR, peptide start residue: 85)", "log2 fold change": 0.0644}, {"target": "UniProt P15331 (peptide sequence: LHEEELR, peptide start residue: 235)", "log2 fold change": -0.291}, {"target": "UniProt P10923 (peptide sequence: ASLEHQSHK, peptide start residue: 249)", "log2 fold change": 1.4}, {"target": "UniProt P09450 (peptide sequence: AENAGLSSAAGLLR, peptide start residue: 302)", "log2 fold change": 0.471}, {"target": "UniProt O89116 (peptide sequence: SYKQEMGKLETDFK, peptide start residue: 76)", "log2 fold change": 0.373}, {"target": "UniProt P0DJF2 (peptide sequence: LLGEQIILTK, peptide start residue: 54)", "log2 fold change": 0.0374}, {"target": "UniProt P01897 (peptide sequence: YISVGYVDNK, peptide start residue: 46)", "log2 fold change": -0.2}, {"target": "UniProt P06802 (peptide sequence: MERDGDQAGHGPR, peptide start residue: 1)", "log2 fold change": 0.313}]}]}
